Results taken from paper PMC8745574.
These are yes or no findings as the source states them, for the method shown. For part of these data: In cells and extracts the contact can be indirect. Some results given as binding are weak or reduced against the parent protein; the word gives no strength. For part of these data: Sequences can lack the tags named with a protein. Each block holds one binder with its values, some of them ahead of it.

Tests used:
[1] = target: T1, cYFP-RID (N. benthamiana) (Arabidopsis thaliana) (UniProt Q9SPU7); assay: split reporter; BiFC, nYFP/cYFP constructs (pE-SPYNE-GW, pE-SPYCE-GW, pC-SPYNE-GW) transiently expressed in N. benthamiana leaves, confocal microscopy after 3 days
T1 sequence: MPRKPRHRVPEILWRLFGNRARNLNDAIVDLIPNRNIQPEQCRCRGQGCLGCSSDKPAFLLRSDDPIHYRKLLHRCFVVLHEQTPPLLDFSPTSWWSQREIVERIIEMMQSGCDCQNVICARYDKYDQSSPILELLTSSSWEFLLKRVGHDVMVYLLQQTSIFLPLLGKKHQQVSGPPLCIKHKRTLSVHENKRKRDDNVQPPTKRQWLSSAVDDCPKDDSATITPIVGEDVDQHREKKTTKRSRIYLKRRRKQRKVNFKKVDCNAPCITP

[2] = target: T2, cYFP-POT1a (N. benthamiana) (Arabidopsis thaliana) (UniProt Q56Y52); assay: as above
T2 sequence: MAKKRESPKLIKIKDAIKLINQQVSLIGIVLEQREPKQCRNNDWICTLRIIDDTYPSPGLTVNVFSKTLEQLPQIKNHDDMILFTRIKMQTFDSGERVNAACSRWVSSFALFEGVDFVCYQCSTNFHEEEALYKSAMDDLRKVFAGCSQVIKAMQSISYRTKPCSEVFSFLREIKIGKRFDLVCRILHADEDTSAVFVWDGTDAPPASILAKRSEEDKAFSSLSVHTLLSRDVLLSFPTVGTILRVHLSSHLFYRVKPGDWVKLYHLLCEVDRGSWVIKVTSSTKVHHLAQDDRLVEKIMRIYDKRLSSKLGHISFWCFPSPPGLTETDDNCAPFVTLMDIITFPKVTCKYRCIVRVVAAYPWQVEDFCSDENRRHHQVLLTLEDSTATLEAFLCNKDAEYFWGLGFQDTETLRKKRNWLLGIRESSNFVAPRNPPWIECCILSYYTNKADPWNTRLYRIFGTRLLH

[3] = target: T3, AtTERT RID construct (1-271 aa) (Arabidopsis thaliana) (UniProt Q9SPU7); assay: two-hybrid; Matchmaker GAL4 system, pGADT7-DEST/pGBKT7-DEST, S. cerevisiae PJ69-4α, 30 °C; growth on -LWH plates (with increasing 3-aminotriazol) and -LWHAde plates
T3 sequence: T1 sequence

[4] = target: T4, POT1a (Arabidopsis thaliana) (UniProt Q56Y52); assay: as above
T4 sequence: T2 sequence

[5] = target: T5, AtTERT TEN construct (1-233 aa) (Arabidopsis thaliana) (UniProt Q9SPU7); assay: as above
T5 sequence: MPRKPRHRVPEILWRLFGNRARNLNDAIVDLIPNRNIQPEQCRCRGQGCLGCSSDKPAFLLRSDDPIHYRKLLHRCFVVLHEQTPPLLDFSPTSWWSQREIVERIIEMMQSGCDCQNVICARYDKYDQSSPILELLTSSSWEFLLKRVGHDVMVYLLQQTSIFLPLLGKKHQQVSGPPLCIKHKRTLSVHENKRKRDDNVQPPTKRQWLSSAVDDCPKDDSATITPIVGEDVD

- binding [1]: binds
B1: AT3G59020 BiFC construct (protein, UniProt F4J738 1-1030)
chain: MDLPSLALIVGAAAFSPNPDERRAAEQSLNQLQHTPQHLIRILQIIVDGGSDLSVRQSASIHFKNFIAKHWEPHSGDQNIILPSDKNVVRNQILVFVSQVPPILRVQMGECLKTIIYADYPEQWPELLDWVKQNLQKPQVYGALFVLRILSSKYEFKSDEDRAPIHRVVEETFPHLLNIFNNLVHVENPSLEVADHIKLICKIFWSCIYLELPRPLFDPNFFNAWMGLFLNILERPVPVEGQPEDPELRKSWGWWKAKKWIAHILNRLYTRFGDLKLQNPDNKAFAQMFQINYAAKILECHLKLLNAIRIGGYLPDRVINLILQYLSNSISKSSMYNLLQPHLNTLLFEIVFPLMCFNDNDQMLWDEDPHEYVRKGYDIIEDLYSPRTASMDFVTELVRKRGKENFPKFIQFVVDIFKRYNEASLENKPYRLKDGALLAVGTLCDKLRQTEPYKSELENMLVQHVFPEFSSPAGHLRAKAAWVAGQYANIDFSDQSNFSKALHCVISGMCDLELPVRVDSVFALRSFIEACKDLDEIRPVLPQLLDEFFKLMKEVENEDLAFTLETIVYKFGEEISPYALGLCQNLASAFWRCIDTDNGDDETDDAGALAAVGCLRAISTILESISSLPHLYGQIEPQLLPIMRKMLTTDGQDVFEEVLEIVSYITTFSPTISLEMWSLWPLMMEALVDWAIDFFPNILVPLHNYISRGTGHYLTCKEPDYQQNLWNVISVLMANKNIDDSDLEPAPKLLGIVLQTCKGQVDQWVEPYLRITLDRLRGAEKSSFKCLLVEVVANAFYYNTPLALGILQRFGIATEIFTLWFQMLQEKKKSGARSNFKREHDKKVCILGLTSLFSLPAGQLPGEVLPHVFRALLELLVAYKDQLAEAAKAEEEEEDEDGDDDDMDEFQTDDEDEDGDDENPDETDGSTLRKLAAQAKDFRSYSDDDDFSDDDFSDDEELESPIDEVDPFVLFMDAVTAMQVSDSPRFQSLTQTLDPHYHGLASTIAQHTELRRAEILKEKLEKQSSATVAS

- binding [2]: no binding
B2: nYFP-RPA3 (protein, UniProt Q6NLG7 1-106)
chain: MDTSSPAAFVNGALLRRYIGQKVRAVIQVIRSDVGSVIGKSTDDQQIVVKGSPQPPLTTYLEVIGIAETDNTIRAEVWTNFGDSFDVQNYNELCKLANGEFRHLFI

- binding [3]: binds
- binding [4]: binds
B3: HSP90-7 (protein, UniProt Q9STX5 1-823)
chain: MRKRTLVSVLFLFSLLFLLPDQGRKLHANAEESSDDVTDPPKVEEKIGGHGGLSTDSDVVHRESESMSKKTLRSNAEKFEFQAEVSRLMDIIINSLYSNKDIFLRELISNASDALDKIRFLALTDKDVLGEGDTAKLEIQIKLDKAKKILSIRDRGIGMTKEDLIKNLGTIAKSGTSAFVEKMQSSGDLNLIGQFGVGFYSAYLVADYIEVISKHNDDSQYVWESKANGKFAVSEDTWNEPLGRGTEIRLHLRDEAGEYLEESKLKELVKRYSEFINFPISLWASKEVETEVPVEEDESADEETETTSTEEEKEEDAEEEDGEKKQKTKKVKETVYEWELLNDVKAIWLRSPKEVTEEEYTKFYHSLSKDFTDEKPMAWSHFNAEGDVEFKAVLYVPPKAPHDLYESYYNSNKANLKLYVRRVFISDEFDELLPKYLSFLKGLVDSDTLPLNVSREMLQQHSSLKTIKKKLIRKALDMIRKLAEEDPDEIHDDEKKDVEKSGENDEKKGQYTKFWNEFGKSVKLGIIEDAANRNRLAKLLRFETTKSDGKLTSLDQYIKRMKKSQKDIFYITGSSKEQLEKSPFLERLIKKGYEVIFFTDPVDEYLMQYLMDYEDKKFQNVSKEGLKVGKDSKDKELKEAFKELTKWWKGNLASENVDDVKISNRLADTPCVVVTSKFGWSANMERIMQSQTLSDANKQAYMRGKRVLEINPRHPIIKELKDRIASDPEDESVKETAQLMYQTALIESGFILTDPKDFAARIYNSVKSGLNISPDAVADEEIEAAEEPETSEATETKSDDLAGGLNIEAEPVEQQEENTKDEL

- binding [2]: no binding
B4: p23-like chaperone AT4G02450, BiFC construct (protein, UniProt Q8L7U4 1-241)
chain: MSRHPEVKWAETTEKIFLTVVLADTKDTKVNLDPEGVFDFSAKVGPENHVYELKLELADKVNVEESKINIGERSIFCIIEKAEPERWNKLLRVKKPPHYVKVDWDKWVDEDDEGSAGAADMDMAGMEGMGGMGGMGGMGGMGGMGGMGGMGGMEGMDFSKLMGGMGGMGGMGGLEGLGGMGGMGGMGGMGGMGGMEEFEDSDDEEETAKSGDKKDDAVKEEGLATEKAPAAEETTSVKEDK

- binding [2]: binds
B5: RAD23-4 BiFC construct (protein, UniProt Q84L30 1-378)
chain: MKIFVKTLSGSNFEIEVKPADKVSDVKTAIETVKGAEYPAAKQMLIHQGKVLKDETTLEENNVVENSFIVIMLSKTKASPSGASTASAPAPSATQPQTVATPQVSAPTASVPVPTSGTATAAAPATAASVQTDVYGQAASNLVAGTTLESTVQQILDMGGGSWDRDTVVRALRAAFNNPERAVEYLYSGIPAQAEIPPVAQAPATGEQAANPLAQPQQAAAPAAATGGPNANPLNLFPQGMPAADAGAGAGNLDFLRNSQQFQALRAMVQANPQILQPMLQELGKQNPQLVRLIQEHQADFLRLINEPVEGEENVMEQLEAAMPQAVTVTPEEREAIERLEGMGFDRAMVLEVFFACNKNEELAANYLLDHMHEFEDQ

- binding [2]: binds
B6: RAD23-3 BiFC construct (protein, UniProt Q84L31 1-419)
chain: MKIFVKTLKGTHFEIEVKPEDSVVDVKKNIESVQGADVYPAAKQMLIHQGKVLKDETTIEENKVAENSFIVIMMNKSKPASAAASSASAGTSQAKSIPPSTSQPSISPQTPASVSAPVAPAPTRPPPPAPTPTPAPVAATETVTTPIPEPVPATISSSTPAPDSAPVGSQGDVYGQAASNLAAGSNLESTIQQILDMGGGTWDRETVVLALRAAFNNPERAVEYLYTGIPEQAEVPPVARPPASAGQPANPPAQTQQPAAAPASGPNANPLDLFPQGLPNVGGNPGAGTLDFLRNSQQFQALRAMVQANPQVLQPMLQELGKQNPNLMRLIQDHQADFLRLINEPVEGGGESGNLLGQMAAGMPQPQAIQVTHEEREAIERLEAMGFERALVLEVFFACNKNEELAANYLLDHMHEFEE

- binding [3]: binds
- binding [5]: binds
B7: ImpA6 (protein, UniProt Q9FWY7 1-538)
chain: MSYKPSAKTEVRRNRYKVSVDADEGRRRREDNMVEIRKNKREENLQKKRREGFNPSMASQPGQDFSSSLPTETRLENIQQMIAGVMSEDRDLQLEATASFRRLLSIERNPPINEVVQSGVVPHIVQFLSRDDFTQLQFEAAWALTNIASGTSENTRVIIDSGAVPLFVKLLSSASEEVREQAVWALGNVAGDSPKCRDHVLSCEAMMSLLAQFHEHSKLSMLRNATWTLSNFCRGKPQPAFEQTKAALPALERLLHSTDEEVLTDASWALSYLSDGTNEKIQTVIDAGVIPRLVQLLAHPSPSVLIPALRTIGNIVTGDDIQTQAVISSQALPGLLNLLKNTYKKSIKKEACWTISNITAGNTSQIQEVFQAGIIRPLINLLEIGEFEIKKEAVWAISNATSGGNHDQIKFLVSQGCIRPLCDLLPCPDPRVVTVTLEGLENILKVGEAEKNLGNTGNDNLYAQMIEDADGLDKIENLQSHDNNEIYEKAVKILESYWAADDEEEDIGGVDAPENVQSSGFQFGNQSGNAPTGGFNFG
